{"source": "PubChem BioAssay AID686938 (Drosophila RNAi Screening Center, 2013)", "aim": "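Looking for CRAC channel components and the factors controlling them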 (primary screen)", "cell system": "Drosophila S2R+ cells", "reagents": "long dsRNA against Drosophila genes, about 0.25 µg dsRNA per well, roughly 10,000 cells", "duration": "5 days of knock-down before the calcium assay", "challenge": "thapsigargin (SERCA pump blocker) to empty calcium stores; entry signal taken 4 min after adding it", "detection": "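Per-well fluo-4 fluorescence in two replicates, unnormalised, measured in resting cells and 4 min after store depletion by the SERCA blocker thapsigargin; ratio of the two present in few wells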", "reading the numbers": "calcium entry signal: higher = stronger calcium signal after store depletion; resting calcium signal: higher = higher resting calcium signal", "units": "calcium entry signal in fluorescence units; resting calcium signal in fluorescence units", "rule for the call": "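Called when the plate z-score of the entry-to-rest ratio, mean of duplicates, falls below −3; wells with low overall dye signal (Fmax z below −2) or more than five off-targets excluded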", "meaning of the calls": "active = strongly reduced calcium entry; inactive = no strong reduction", "note": "The deposit covers about 23,000 reagents; this is an unselected part of those that have a named target and a result. Of all reagents, 75 (0.33%) are marked active. 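Raw plate signals without normalisation; calls rest on plate z-scores that were not deposited; ratio present for only 364 wells.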 Unmarked entries are inactive. Names joined by + are all predicted targets of the reagent. Not stated in the record: the dose of the treatment."}
{"Gene": "CG43339", "PubChem SID": "SID104182258", "calcium entry signal, replicate 1": 4.72e7, "resting calcium signal, replicate 1": 2.30e7}
{"Gene": "ATbp", "PubChem SID": "SID104200698", "calcium entry signal, replicate 1": 3.80e7, "calcium entry signal, replicate 2": 5.12e7, "resting calcium signal, replicate 1": 2.42e7, "resting calcium signal, replicate 2": 2.36e7}
{"Gene": "CG6138", "PubChem SID": "SID104182725", "calcium entry signal, replicate 1": 3.74e7, "calcium entry signal, replicate 2": 4.50e7, "resting calcium signal, replicate 1": 1.68e7, "resting calcium signal, replicate 2": 1.90e7}
{"Gene": "robl62A", "PubChem SID": "SID104187945", "calcium entry signal, replicate 1": 3.73e7, "calcium entry signal, replicate 2": 4.44e7, "resting calcium signal, replicate 1": 1.88e7, "resting calcium signal, replicate 2": 2.10e7}
{"Gene": "CG2258", "PubChem SID": "SID104198014", "calcium entry signal, replicate 1": 3.00e7, "calcium entry signal, replicate 2": 2.33e7, "resting calcium signal, replicate 1": 1.35e7, "resting calcium signal, replicate 2": 1.10e7}
{"Gene": "Fer2", "PubChem SID": "SID104195717", "calcium entry signal, replicate 1": 4.65e7, "calcium entry signal, replicate 2": 8.17e7, "resting calcium signal, replicate 1": 2.11e7, "resting calcium signal, replicate 2": 8.25e7}
{"Gene": "Oatp26F", "PubChem SID": "SID104181941", "calcium entry signal, replicate 1": 2.48e7, "calcium entry signal, replicate 2": 2.70e7, "resting calcium signal, replicate 1": 1.23e7, "resting calcium signal, replicate 2": 1.20e7}
{"Gene": "Oatp26F", "PubChem SID": "SID104182064", "calcium entry signal, replicate 1": 2.54e7, "calcium entry signal, replicate 2": 2.23e7, "resting calcium signal, replicate 1": 1.21e7, "resting calcium signal, replicate 2": 1.16e7}
{"Gene": "Oatp26F", "PubChem SID": "SID104182487", "calcium entry signal, replicate 1": 2.19e7, "calcium entry signal, replicate 2": 2.34e7, "resting calcium signal, replicate 1": 1.14e7, "resting calcium signal, replicate 2": 1.12e7}

A run of entries of the results above, as a working copy:
{"Gene": "Fer2", "PubChem SID": "SID104195717", "calcium entry signal, replicate 1": 4.65e7, "calcium entry signal, replicate 2": 8.17e7, "resting calcium signal, replicate 1": 2.11e7, "resting calcium signal, replicate 2": 8.25e7}
{"Gene": "Oatp26F", "PubChem SID": "SID104181941", "calcium entry signal, replicate 1": 2.48e7, "calcium entry signal, replicate 2": 2.70e7, "resting calcium signal, replicate 1": 1.23e7, "resting calcium signal, replicate 2": 1.20e7}
{"Gene": "Oatp26F", "PubChem SID": "SID104182064", "calcium entry signal, replicate 1": 2.54e7, "calcium entry signal, replicate 2": 2.23e7, "resting calcium signal, replicate 1": 1.21e7, "resting calcium signal, replicate 2": 1.16e7}

The list goes on.
{"Gene": "Nepl4", "PubChem SID": "SID104183031", "calcium entry signal, replicate 1": 4.92e7, "resting calcium signal, replicate 1": 2.49e7}
{"Gene": "UQCR-14L", "PubChem SID": "SID104195080", "calcium entry signal, replicate 1": 3.39e7, "calcium entry signal, replicate 2": 5.43e7, "resting calcium signal, replicate 1": 1.73e7, "resting calcium signal, replicate 2": 2.38e7}
{"Gene": "UQCR-14L", "PubChem SID": "SID104201896", "calcium entry signal, replicate 1": 4.28e7, "calcium entry signal, replicate 2": 3.71e7, "resting calcium signal, replicate 1": 2.23e7, "resting calcium signal, replicate 2": 1.48e7}
{"Gene": "RYBP", "PubChem SID": "SID104183909", "calcium entry signal, replicate 1": 3.65e7, "resting calcium signal, replicate 1": 1.96e7}
{"Gene": "CG32536 + CG32537", "PubChem SID": "SID104199866", "calcium entry signal, replicate 1": 4.99e7, "calcium entry signal, replicate 2": 3.81e7, "resting calcium signal, replicate 1": 2.42e7, "resting calcium signal, replicate 2": 1.83e7}
{"Gene": "CG4968", "PubChem SID": "SID104182586", "calcium entry signal, replicate 1": 5.45e7, "calcium entry signal, replicate 2": 3.89e7, "resting calcium signal, replicate 1": 2.25e7, "resting calcium signal, replicate 2": 1.57e7}
{"Gene": "CG30376", "PubChem SID": "SID104184878", "calcium entry signal, replicate 1": 3.41e7, "calcium entry signal, replicate 2": 4.65e7, "resting calcium signal, replicate 1": 1.81e7, "resting calcium signal, replicate 2": 2.06e7}
{"Gene": "Eip78C", "PubChem SID": "SID104191656", "calcium entry signal, replicate 1": 1.87e7, "calcium entry signal, replicate 2": 3.01e7, "resting calcium signal, replicate 1": 1.12e7, "resting calcium signal, replicate 2": 1.69e7}
{"Gene": "Eip78C", "PubChem SID": "SID104202454", "calcium entry signal, replicate 1": 4.40e7, "calcium entry signal, replicate 2": 4.07e7, "resting calcium signal, replicate 1": 2.03e7, "resting calcium signal, replicate 2": 1.66e7}
{"Gene": "gcm", "PubChem SID": "SID104183328", "calcium entry signal, replicate 1": 3.60e7, "calcium entry signal, replicate 2": 6.90e7, "resting calcium signal, replicate 1": 1.87e7, "resting calcium signal, replicate 2": 3.04e7}
{"Gene": "CG2790", "PubChem SID": "SID104183837", "calcium entry signal, replicate 1": 2.75e7, "resting calcium signal, replicate 1": 1.41e7}
{"Gene": "Drip", "PubChem SID": "SID104187197", "calcium entry signal, replicate 1": 2.97e7, "calcium entry signal, replicate 2": 4.27e7, "resting calcium signal, replicate 1": 1.48e7, "resting calcium signal, replicate 2": 1.86e7}
